# In PubChem BioAssay AID540303 (National Center for Advancing Translational Sciences (NCATS), 2011):
# About 1,000 (0.3%) of roughly 330,000 compounds were called active. Inconclusive means that the source gave no clear call. Such entries were picked first, then a sample of the others. Calls come from the whole dose curve; as a rule, active = well fitted inhibition curve with a large enough effect; inconclusive = small, poorly fitted or top-dose-only effect; inactive = no such curve, though single readings can be large or run the other way; tested in mouse RAW 264.7 cells. A potency beside an inconclusive call is a rough fit, not a confirmed value.
# Assay: qHTS for Inhibitors of Cell Surface uPA Generation; note: nearly all actives have a fitted effect of over 55% in size
# Settings: cell surface uPA generation assay; series mostly up to 38.3 µM; activity change, negative = inhibition: at the top concentration
# In short: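 Using RAW 264.7 macrophages, the screen measures whether compounds keep cellular ATP up by preventing uPA-driven LF translocation. Treatment lasted 24 h at 37 C, with a final top concentration of 38.3 uM, and luminescence was the readout.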
# % is set by controls: 0 for no effect and ±100 for the full control effect; potency is the fitted concentration of half-maximal effect.
Structure (SMILES),Potency,"activity change, negative = inhibition"
Cc1cc(=O)n2[nH]c(Nc3cccc(Cl)c3)nc2n1,"inconclusive: 12.6 µM [inhibitor, partial curve, poor fit]",
CC(=O)c1ccc(NC(=S)NCCc2cccc(Cl)c2)cc1,,inactive: -1.77%
CCOc1cccc2sc(N(CCN(CC)CC)C(=O)c3cccc(N4C(=O)CCC4=O)c3)nc12,"inconclusive: 31.6 µM [inhibitor, partial curve, poor fit]",
CC(C)(C)c1ccc(C(=O)N2CCC(=O)N(C(COCc3ccccc3)Cc3ccccc3)CC2)cc1 (stereo not given),"inconclusive: 12.6 µM [inhibitor, single point]",
Cc1cc(=O)c2cc(Cl)ccc2[nH]1,"inconclusive: 28.2 µM [inhibitor, single point]",
Cc1ccc2nc(-c3ccc(-c4cccc(Cl)c4)cc3)c(NCc3ccccc3)n2c1,"inconclusive: 12.6 µM [inhibitor, single point]",
C=CC[C@@H](CC(=O)N[C@@H](CO)Cc1ccccc1)C(=O)N[C@H](COC(=O)[C@@H](CC=C)CC(=O)OC(C)(C)C)Cc1c[nH]c2ccccc12,"inconclusive: 14.1 µM [inhibitor, single point]",
COc1cccc(-c2c(C(=O)N/N=C/c3sccc3C)nnn2-c2nonc2N)c1,,inactive: 18%
COc1ccc(CN2[C@@H](CC(C)=O)c3ccc(/C=C/C(C)=O)cc3S2(=O)=O)cc1,"inconclusive: 6.31 µM [inhibitor, partial curve, poor fit]",
Nc1cc([N+](=O)[O-])ccc1Nc1ccc(O)cc1,"inconclusive: 10 µM [inhibitor, partial curve, poor fit]",
O=C(NCc1ccccn1)c1cc(-c2ccc(Cl)cc2)oc1C(F)(F)F,"inconclusive: 12.6 µM [inhibitor, partial curve, poor fit]",
O=c1cc(-c2ccc(O)cc2)oc2ccccc12,"inconclusive: 7.94 µM [inhibitor, single point]",
Cc1ccc(OCCC(=O)OC(C)C(=O)Nc2ccc(Cl)cn2)cc1 (stereo not given),,inactive: -2.75%
CCOc1ccc2nc(NC(=O)Nc3cccs3)sc2c1,"inconclusive: 7.08 µM [inhibitor, partial curve]",
COc1ccc(C(=O)O/N=C(\N)c2ccccc2)c(OC)c1,active: 3.98 µM,
COc1cc2c(cc1OC)C(c1ccc(OC)c(OC)c1OC)CC(=O)N2 (stereo not given),"inconclusive: 0.316 µM [inhibitor, full curve, poor fit]",
O=C(CCCO)N/N=C/c1cc(Br)ccc1O,"inconclusive: 11.2 µM [inhibitor, single point]",
CC(C)Nc1ccc(C(CC(N)=O)NC(=O)Cc2ccc(Br)cc2)cc1[N+](=O)[O-] (stereo not given),"inconclusive: 2.82 µM [inhibitor, partial curve, poor fit]",
COc1ccc(Br)cc1S(=O)(=O)Nc1ncccc1C,,inactive: 12.1%
Cc1cc(C(=O)Nc2ccc(CC(=O)O)cc2)c(C)o1,,inactive: -4.86%
COc1ccc2[nH]c(=O)c3c(c2c1)OC(C)(C)C=C3,,inactive: -11%
CN(C)c1ccc(C(=O)Nc2nc3c(s2)CCCC3)cc1,"inconclusive: 14.1 µM [inhibitor, partial curve, poor fit]",
CC(C)(C)c1ccc2c(c1)C(=O)c1ccccc1C2=O,,inactive: -11.6%
CC(=O)C1C=CC(C)(C(=O)O)C2C=C(C)C(=O)C(C)(O)C12 (stereo not given),,inactive: -1.31%

Structure (SMILES),Potency,"activity change, negative = inhibition"
COc1ccc(/C=C2\Oc3ccccc3C2=O)cc1,active: 7.08 µM,
COCCNC(=O)C(c1ccc(F)cc1)N(C(=O)CCC(=O)Nc1nccs1)c1cccc(C)c1 (stereo not given),,inactive: -1.23%
C/C(=N\N1C(=O)c2ccccc2NC1c1ccco1)c1ccccc1O (stereo not given),active: 7.94 µM,
COc1cc(S(=O)(=O)NCc2ccncc2)ccc1Br,,inactive: 1.14%
O=C(CSc1nnc(NC(=O)c2ccccc2)s1)NCC1CCCO1 (stereo not given),"inconclusive: 4.47 µM [inhibitor, partial curve, poor fit]",
Cc1cnc(SCc2ccc(Cl)cc2Cl)[nH]c1=O,,inactive: 5.93%
CC(=O)c1sc(NC(=O)C(C)Oc2ccc3c(C)cc(=O)oc3c2)nc1C (stereo not given),,inactive: -0.858%
CC(C)(C)c1ccc(C(=O)N/N=C/c2ccccn2)cc1,"inconclusive: 8.91 µM [inhibitor, single point]",
Cc1ccc(-c2nc3ccccc3[nH]2)cc1N,"inconclusive: 3.98 µM [inhibitor, partial curve]",
CC[C@]1(c2ccccc2OC)C(=O)N(C(=O)OC)N1C(=O)OC,"inconclusive: 8.91 µM [inhibitor, partial curve, poor fit]",
COC(=O)c1cccc(C#CC(NP(=O)(c2ccccc2)c2ccccc2)c2ccccc2)c1 (stereo not given),"inconclusive: 28.2 µM [inhibitor, single point]",
O=C(NCc1ccccc1)c1cc(-c2cccc(O)c2)on1,active: 2.82 µM,
CCOc1ccc(N=c2scc(-c3ccc(OC)cc3)n2CCO)cc1,,inactive: 0.854%
CN(C)/C=C/C(=O)c1cnc(-c2ccccc2Cl)s1,"inconclusive: 31.6 µM [inhibitor, single point]",
Cc1ccc(C(CC(=O)O)NC(=O)c2ccc(S(=O)(=O)N3CC(C)OC(C)C3)cc2)cc1 (stereo not given),"inconclusive: 14.1 µM [inhibitor, partial curve, poor fit]",
CC(=O)N1N=C2c3ccccc3CCC2C1c1ccc(F)cc1 (stereo not given),,inactive: -4.17%
Nc1cc(C(F)(F)F)cc([N+](=O)[O-])c1N,"inconclusive: 10 µM [inhibitor, partial curve, poor fit]",
O=C1/C(=C/c2ccccc2)SC(=S)N1CC(=O)N1CCCCC1c1cccnc1 (stereo not given),"inconclusive: 14.1 µM [inhibitor, partial curve, poor fit]",
O=C(CSc1nnc(NC2CC2)s1)Nc1ccc(N2CCOCC2)cc1,"inconclusive: 7.08 µM [inhibitor, partial curve, poor fit]",
CC[N+](C)(CC)CCOC(=O)C(O)(c1ccccc1)C1CCCCC1 (stereo not given),"inconclusive: 1.12 µM [inhibitor, partial curve, poor fit]",
CCOC(=O)C1CCCN(C(=O)CCc2nc3sc4c(c3c(=O)[nH]2)CCCC4)C1 (stereo not given),"inconclusive: 12.6 µM [inhibitor, partial curve, poor fit]",
CN(CC(=O)N1CCN(Cc2ccccc2)CC1)S(=O)(=O)c1cccc2nsnc12,"inconclusive: 0.501 µM [inhibitor, full curve, poor fit]",
CC1CN(C(=O)CCC(=O)N2CCOCC2)c2ccccc2O1 (stereo not given),,inactive: -0.191%
Cc1cc(C)cc(C(=O)Nc2nnc(SCC(=O)NCC3CCCO3)s2)c1 (stereo not given),,inactive: -1.99%

Structure (SMILES),Potency,"activity change, negative = inhibition"
Nc1ccc(/C=C/c2ccc3ncccc3c2)cc1,"inconclusive: 3.98 µM [inhibitor, partial curve, poor fit]",
O=C(Nc1ccc(SC(F)F)cc1)C1=COCCO1,"inconclusive: 3.98 µM [inhibitor, partial curve, poor fit]",
Cc1ccccc1NS(=O)(=O)c1ccc(OCC(=O)NCC2CCCO2)cc1 (stereo not given),"inconclusive: 2.82 µM [inhibitor, single point]",
CC(CN1CCN(C)CC1)OC(=O)c1cccc(F)c1 (stereo not given),,inactive: -0.578%
CCOC(=O)COc1cccc2c(=O)n(CC(=O)NCc3ccccc3)ccc12,active: 0.199 µM,
Clc1nc2c(-c3ccccc3)nnn2c2ccccc12,"inconclusive: 3.16 µM [inhibitor, partial curve]",
O=C(N/N=C/c1c(O)ccc2ccccc12)Nc1ccccc1,,inactive: -13.8%
CCN1C(=O)[C@H]2[C@@H](c3ccc(-c4cccc(Cl)c4)cc3)N[C@@](C)(C(=O)OC)[C@H]2C1=O,,inactive: 10.3%
Cc1nnc2c(SC(C)C)nc3ccccc3n12,"inconclusive: 7.08 µM [inhibitor, partial curve, poor fit]",
CCCN1C2CCCC1CC(NC(=S)Nc1cc(C)cc(C)c1)C2 (stereo not given),"inconclusive: 12.6 µM [inhibitor, single point]",
O=C(CSc1n[nH]c(-c2ccccn2)n1)Nc1ccccc1,,inactive: -14.2%
c1ccc(-c2nc3ccccc3[nH]2)cc1,"inconclusive: 5.01 µM [inhibitor, partial curve, poor fit]",
COc1ccc(S(=O)(=O)N(C)C[C@H]2Oc3ccc(NS(=O)(=O)c4cccs4)cc3C(=O)N([C@H](C)CO)C[C@@H]2C)cc1,,inactive: 10.7%
CC(C)(C)NC(=O)CSc1nnc(-c2ccccc2)c(-c2ccccc2)n1,,inactive: -3.6%
COc1ccc(NC(=O)CSc2nc3ccccc3c(=O)n2CCNC(C)=O)c(OC)c1,,inactive: 0.639%
CC(=O)Nc1ccc(NC(=O)C(=O)NCC(c2ccco2)N2CCc3ccccc32)cc1 (stereo not given),"inconclusive: 28.2 µM [inhibitor, single point]",
Cc1ccc(-c2nc3ccccc3c(=O)o2)cc1,"inconclusive: 10 µM [inhibitor, partial curve, poor fit]",
CCOc1ccc(Cl)cc1C1=CC(=O)C[C@H](c2ccc(OC)cc2)C1,"inconclusive: 1 µM [inhibitor, full curve, poor fit]",
CC(Oc1ccccc1)C(=O)N1CCC2(CC1)Oc1ccc(F)cc1C(=O)C21CC(c2cccnc2)=NO1 (stereo not given),"inconclusive: 5.62 µM [inhibitor, partial curve, poor fit]",
CCn1ncc(/C=N\NC(=O)COc2cc(C)cc(C)c2)c1C,"inconclusive: 11.2 µM [inhibitor, partial curve, poor fit]",
OCCNc1nc(Nc2ccccc2Oc2ccccc2)nc(N2CCCC2)n1,"inconclusive: 12.6 µM [inhibitor, partial curve, poor fit]",
Cc1cccc(N2CCN(C(=O)C3CC(=O)N(c4ccc5c(c4)OCCO5)C3)CC2C)c1 (stereo not given),"inconclusive: 14.1 µM [inhibitor, single point]",

# By substructure, those above with a nitro group on carbon.
Structure (SMILES),Potency,"activity change, negative = inhibition"
Nc1cc([N+](=O)[O-])ccc1Nc1ccc(O)cc1,"inconclusive: 10 µM [inhibitor, partial curve, poor fit]",
CC(C)Nc1ccc(C(CC(N)=O)NC(=O)Cc2ccc(Br)cc2)cc1[N+](=O)[O-] (stereo not given),"inconclusive: 2.82 µM [inhibitor, partial curve, poor fit]",
Nc1cc(C(F)(F)F)cc([N+](=O)[O-])c1N,"inconclusive: 10 µM [inhibitor, partial curve, poor fit]",
